Experimental data reported in PubChem BioAssay AID493014 (National Center for Advancing Translational Sciences (NCATS), 2011).
The other results are listed elsewhere or left out. Further columns of the screen follow, without active or inactive calls. Compounds called inactive in the main read-out are mostly missing here. Potencies come from curve fits of mixed quality, noted in brackets.

Assay: qHTS Assay to Find Inhibitors of Chronic Active B-Cell Receptor Signaling
Settings: ABC-DLBCL IkBa-CBG/CBR reporter, luminescence ratio (green luciferase fused to IkBa over red control in TMD8 lymphoma cells), 4 h
Summary of the method: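 TMD8 ABC-DLBCL cells carrying doxycycline-inducible green luciferase fused to IkappaBalpha plus unfused red luciferase were exposed to compounds (up to 46 uM) for 4 hrs at 37C. Activity came from the overlap-corrected green/red luminescence ratio.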

[1] = measured here: CBR red luminescence, cell number
[2] = measured here: IkBa-CBG green luminescence

SMILES | AC50 [1] | AC50 [2]
C=CCn1c(O)c(C=Nc2ccccc2)sc1=S | 8.91 µM [falling, single point] | 
CC(C)(C)C(=O)Nc1nc2c(c(=O)[nH]1)CCCC2 | 15.8 µM [falling, partial curve, poor fit] | 
Cc1cc(NS(=O)(=O)c2ccc(NC(=O)COc3c(C)cc(Br)cc3C)cc2)no1 | 2.24 µM [falling, partial curve, poor fit] | 
CCN(CC)CCn1c2ccccc2c2nc3ccccc3nc21 | 17.8 µM [falling, single point] | 
O=[N+]([O-])c1cccc(-c2cn3ccccc3n2)c1 | 12.6 µM [rising, partial curve] | 
COc1cc2c(cc1OC)CN(C(=O)CN1C(=O)c3ccc([N+](=O)[O-])cc3C1=O)CC2 | 29.1 µM [rising, single point] | 
CC(C)(C)c1ccc(-c2noc(CCC(=O)NCc3ccco3)n2)cc1 | 11.2 µM [falling, partial curve] | 
CCC(C)[C@@H](N)C(=O)N/N=C/c1ccc2ncccc2c1 (stereo partly drawn) | 0.92 µM [rising, full curve, poor fit] | 
O=[N+]([O-])c1ccc(O)c2ncccc12 | 2.82 µM [falling, single point] | 3.26 µM [falling, partial curve]
CC(C)NC(=O)c1onc(CSc2ccc(F)c(F)c2)c1C(=O)O | 15.8 µM [falling, single point] | 
COc1ccc(OC)c(CCNC(=O)Cn2sc3nc(C)cc(C)c3c2=O)c1 | 29.1 µM [falling, single point] | 
Cc1nn2c(=O)c3c4c(sc3nc2n1-c1ccccc1)COC(C)(C)C4 | 0.316 µM [rising, full curve] | 
COc1ccccc1NC(=O)c1cc(C(=O)O)ccc1C(=O)O | 35.5 µM [falling, partial curve, poor fit] | 
COc1ccc(Nc2cc(NCCCO)c([N+](=O)[O-])c3nonc23)cc1 | 0.501 µM [rising, full curve, poor fit] | 
Cc1cc(C)nc(SCC(=O)Nc2ccc(N3CCOCC3)c(Cl)c2)n1 | 18.4 µM [rising, partial curve, poor fit] | 
CCOc1ccc(OCCC(=O)NNC(=O)c2ccncc2)cc1 | 29.1 µM [rising, single point] | 
CC(C)c1ccc(S(=O)(=O)N2CCN(CCC(=O)Nc3ccc(N(C)C)cc3)CC2)cc1 | 32.6 µM [rising, partial curve, poor fit] | 
COc1cc(C2SC(C)C(=O)N2CCc2ccccc2)cc(OC)c1OC (stereo not drawn) | 15.8 µM [falling, partial curve, poor fit] | 
COc1cc2nc(CN(C)Cc3ccc(C(C)(C)C)cc3)[nH]c(=O)c2cc1OC | 15.8 µM [rising, single point] | 
Cc1ccc(-n2cccc2/C=N/n2cnnc2)cc1Cl | 0.366 µM [rising, full curve, poor fit] | 

Two compounds drawn at random from those above:
SMILES | AC50 [1] | AC50 [2]
COc1ccc(Nc2cc(NCCCO)c([N+](=O)[O-])c3nonc23)cc1 | 0.501 µM [rising, full curve, poor fit] | 
CC(C)c1ccc(S(=O)(=O)N2CCN(CCC(=O)Nc3ccc(N(C)C)cc3)CC2)cc1 | 32.6 µM [rising, partial curve, poor fit] | 

Following part.

SMILES | AC50 [1] | AC50 [2]
CC(=O)c1ccc(N2CCN(S(=O)(=O)c3c(C)[nH]c(C)c3C(=O)N3CCCC3)CC2)cc1 | 3.55 µM [rising, partial curve, poor fit] | 
CCc1ccc(OCC(=O)NCCOc2ccccc2)cc1 | 23.1 µM [rising, partial curve] | 
N#C/C(=C\c1cccs1)C(=O)Nc1nccs1 | 35.5 µM [falling, single point] | 
Cc1ccccc1NC(=O)Cn1nc(C)n2cccc2c1=O | 35.5 µM [rising, single point] | 
CC1(C)Cc2nc3sc4c(=O)[nH]cnc4c3cc2CS1 | 1.16 µM [rising, partial curve, poor fit] | 
COc1ccc(Cl)cc1NC(=S)NCCSc1ccc(C)cc1 | 20.6 µM [falling, single point] | 23.1 µM [rising, single point]
CC(C)OP(=O)(OC(C)C)/C(C=O)=N\Nc1ccc([N+](=O)[O-])cc1 | 3.16 µM [rising, partial curve, poor fit] | 
Clc1ccc(-c2c[n+](Cc3ccc(Cl)c(Cl)c3)c3n2CCC3)cc1 | 9.2 µM [falling, partial curve] | 
CC(=O)Nc1ccc2nc3ccccc3nc2c1 | 5.62 µM [falling, partial curve] | 2.82 µM [rising, partial curve, poor fit]
Cc1ccc(C(C)C)c(OCC(=O)Nc2ccc3c(c2)nc(CN2CCCC2)n3C)c1 | 3.26 µM [falling, single point] | 
CCn1cnc2c1c(=O)n(Cc1csc(-c3ccccc3)n1)c(=O)n2Cc1ccccc1 | 15.8 µM [falling, single point] | 
Cc1cccc(-c2nc(Nc3cccc(O)c3)c3ccccc3n2)c1 | 12.6 µM [falling, single point] | 
Cc1ccc2c(CN3C(=O)NC(C)(c4ccc5c(c4)OCO5)C3=O)cc(=O)oc2c1 (stereo not drawn) | 35.5 µM [falling, single point] | 
CN(c1ccccc1C(=O)Nc1ccc2c(c1)OCO2)S(C)(=O)=O | 29.1 µM [rising, single point] | 
Cc1cccc(NC(=O)CN2CCN(C(=O)c3ccc(OCc4cn5ccccc5n4)cc3)CC2)c1C | 0.103 µM [rising, full curve, poor fit] | 
Cc1ccc(-c2nnn(CC(=O)NC3CC4CCC3C4)n2)cc1 (stereo not drawn) | 20.6 µM [rising, partial curve, poor fit] | 
COc1cccc(CNc2nc3nc(C)c(Cl)c(C)n3n2)c1 | 4.61 µM [falling, partial curve] | 
Cc1cc(C)cc(NC(=O)C(OC(=O)C2=COCCO2)c2ccccc2)c1 (stereo not drawn) | 32.6 µM [falling, partial curve, poor fit] | 
COc1ccc(-c2ccc(CCC(=O)O)n2Cc2ccco2)cc1 | 12.6 µM [rising, partial curve, poor fit] | 
CCc1noc(C)c1C(=O)N(CC)CC(=O)NCc1ccc(Cl)cc1 | 6.51 µM [rising, single point] | 
